Where “and” joins values, the source holds several entries; their conditions need not be identical. Equal values may be shown once. The campaign covered roughly 300,000 compounds. About 5,400 (1.8%) were called active. Inconclusive means that the source gave no clear call. Such entries were picked first, then a sample of the others. The call rests on the fitted dose curve; tested in HEK293 cells. Potencies of inconclusive entries are doubtful fits and often do not repeat.
Assay: qHTS for inhibitors of binding or entry into cells for Marburg Virus
Settings: Marburg virus pseudotyped entry inhibition, cell reporter; activity change, negative = inhibition: at 37.8 µM (top of the series) unless noted
On the % scale 0 is the no-effect control and ±100 the full control effect; potency means the concentration at half of the fitted maximal effect.

SMILES	Potency	activity change, negative = inhibition
Cc1ccc(NC(CNS(=O)(=O)c2ccc(Cl)cc2)c2ccccc2)cc1 (stereo not given)	inactive and inconclusive: 22.4 µM [inhibitor, single point]	
O=c1[nH]c2ccccc2nc1/C=C/c1ccc(O)cc1	inconclusive: 6.31 µM [activator, single point]	
CC1(C)Cc2ccccc2-c2nnc(-c3cccnc3)n21	inconclusive: 0.1 µM [activator, full curve, poor fit]	
Cc1ccc(C(=O)CSc2nnc3ccc4ccccc4n23)cc1		inactive: 29% [at 46.1 µM]
Cc1cc(C(=O)C[N+]2(C)CCOCC2)c(C)n1-c1ccc(Br)cc1	inconclusive: 10 µM [activator, partial curve, poor fit]	
CC(=O)c1cccc(NS(=O)(=O)c2ccc(NC(=O)N3CCCCC3)cc2)c1	active: 2.24 µM	
CCN(CC)S(=O)(=O)c1ccc(C(=O)NCC(=O)N/N=C/c2ccccc2OC)cc1		inactive: 1.55%
CC(C)c1ccccc1NC(=O)COC(=O)c1c2c(nc3ccccc13)CCN(Cc1ccccc1)C2	inconclusive: 20.6 µM [inhibitor, partial curve, poor fit]	
CCN(CC)S(=O)(=O)c1ccc(C(=O)Oc2ccc3c(c2)OCO3)cc1	inconclusive: 35.5 µM [activator, single point]	
Cc1cc(C)nc(Nc2n[nH]c(-c3ccc(C(C)(C)C)cc3)n2)n1	inconclusive: 35.5 µM [inhibitor, partial curve, poor fit]	
COc1ccccc1N(CC(=O)NCc1ccco1)S(C)(=O)=O	inconclusive: 5.62 µM [activator, single point]	
Cc1cccc(N2CCN(C(=O)C3CC(=O)N(C4CCCC4)C3)CC2)c1C (stereo not given)	inconclusive: 4.47 µM [inhibitor, full curve, poor fit]	
O=C(CSc1nc2ccc(NC(=O)c3ccccc3C(=O)O)cc2s1)Nc1c(Cl)cccc1Cl	inconclusive: 3.16 µM [inhibitor, single point]	
COc1ccc(CN2CC(=O)N(c3cccc(Cl)c3)C2=S)cc1OC	inconclusive: 6.31 µM [inhibitor, full curve, poor fit]	
COc1ccc([C@H]2C[C@H](n3cc(C4CC4)nn3)[C@@H](O)CN2C(=O)c2cccs2)cc1	inconclusive: 0.0887 µM [activator, full curve, poor fit]	
O=C(O)C(O)Cc1c[nH]c2ccccc12 (stereo not given)	inconclusive: 0.0651 µM [inhibitor, full curve, poor fit]	
C=CCn1c(C)cc(C2=NNC(=Nc3ccc(C)cc3)SC2)c1C	inconclusive: 1.26 µM [inhibitor, full curve]	
Cc1cc(C)nc(Nc2nc(=O)c3ccccc3s2)n1	inconclusive: 3.55 µM [activator, single point]	
CC1CCCCN1C(=O)CSc1nc2cc3c(cc2c(=O)n1Cc1ccc2c(c1)OCO2)OCO3 (stereo not given)	inconclusive: 14.6 µM [inhibitor, partial curve, poor fit]	
COC(=O)C1=C(C)N(CCC2=CCCCC2)C(=O)C1		inactive: -21.1% [at 46.1 µM]
COc1ccc(-c2csc(C3=C(O)CN(Cc4ccc(Cl)cc4)C3=N)n2)cc1OC		inactive: -1.13%
O=C(CCN1C(=O)S/C(=C\c2ccccc2)C1=O)N1CCOCC1		inactive: 4.84%
CCOc1ccc(CNS(=O)(=O)c2cc(-c3cc(C)no3)ccc2OC)cc1OC	inconclusive: 15.8 µM [inhibitor, single point]	
O=C1OC(Cc2ccccc2)C(c2ccccc2)C1=O (stereo not given)		inactive: 3.11%

SMILES	Potency	activity change, negative = inhibition
C#CCCCON=C1C[C@@H](O)[C@H](O)[C@H]2[C@@H]3C(=O)N(C4CCCCC4)C(=O)[C@@H]3CC[C@H]12	inconclusive: 0.422 µM [inhibitor, partial curve, poor fit]	
Cc1[nH]c2ccccc2c1/C=N/NC(=O)c1cc(C(C)(C)C)[nH]n1		inactive: -10.3%
N#C/C(=C\c1cccnc1)c1ccccc1[N+](=O)[O-]	inconclusive: 15.8 µM [inhibitor, partial curve, poor fit]	
COc1cc(C(=O)Nc2nc3ccccc3s2)ccc1OCc1c(C)noc1C	inconclusive: 29.1 µM [inhibitor, single point]	
O=C(CCN1C(=O)c2ccccc2C1=O)N1CCC(c2ccccc2)C1 (stereo not given)		inactive: 1.86%
O=C(Nc1ccccc1C(=O)N1CCCCC1)C1CCCCC1	inconclusive: 0.116 µM [activator, single point]	
COC(=O)CC=C1c2ccccc2OC[C@@H](OC)[C@H]1C		inactive: 2.4% [at 14.2 µM]
c1cc2c(cc1-c1cnc3n1CCC3)OCCO2		inactive: 17.2%
COc1ccc(/C=N/Nc2nnc(C)n2N)cc1OC(C)=O	inconclusive: 35.5 µM [inhibitor, single point]	
Cc1ccc(-n2c(C)cc(C3N=C(N)Nc4nc5ccccc5n43)c2C)c(C)c1 (stereo not given)	inconclusive: 18.3 µM [inhibitor, single point]	
Cn1c(CN2CCCCC2)nc2cc(NC(=O)c3ccc(Cl)cc3)ccc21	active: 20.6 µM	
Cn1ccc2c(-c3ccc(F)cc3F)cc3c(c21)C1CCC3C1 (stereo not given)	inconclusive: 7.91 µM [inhibitor, full curve]	
O=C(Nc1ccccc1)Nc1nc(-c2ccc(F)c(F)c2)cs1		inactive: -8.35%
Cc1cc(-c2nc(C)c(-c3nnc(SCC(=O)Nc4cc(Cl)cc(Cl)c4)n3C)s2)no1	inconclusive: 12.6 µM [activator, partial curve, poor fit]	
O=C(N/C=N/O)C1=NOC(CNc2ncc(C(F)(F)F)cc2Cl)C1 (stereo not given)		inactive: 8.82%
S=C(NNC(=S)Nc1ccccc1)Nc1ccccc1	inconclusive: 6.31 µM [activator, single point]	
COc1ccc(CN(CC2CCC(C(=O)O)CC2)C(=S)Nc2cccc(C)c2)cc1 (stereo not given)		inactive: 8.84% [at 46.1 µM]
COc1cc2oc3ccccc3c2cc1N(CC(=O)N(C)C)S(=O)(=O)c1ccc(C)cc1		inactive: -8.03% [at 46.1 µM]
CCOc1ccccc1NC(=O)N1CCC(c2nc3ccc(C)cc3[nH]2)CC1	inconclusive: 25.9 µM [inhibitor, single point]	
Cc1nn(-c2ccccc2)c2sc(C(=O)N3CCCCC3)cc12	inconclusive: 35.5 µM [inhibitor, single point]	
COC(=O)Cc1ccc(NC(=S)NCc2ccc(S(N)(=O)=O)cc2)cc1	inconclusive: 3.98 µM [activator, full curve, poor fit]	
CCOc1cccc(CN2CCCC(N3CCN(c4cccc(Cl)c4)CC3)C2)c1O (stereo not given)	inconclusive: 35.5 µM [inhibitor, single point]	
O=C1NC(=O)N(Cc2ccccc2)C(=O)/C1=C\N1CCCc2ccccc21		inactive: 14.7%
COc1ccc2oc(=O)c(C(=O)N3CCCc4ccccc43)cc2c1	inconclusive: 0.073 µM [activator, full curve]	

SMILES	Potency	activity change, negative = inhibition
CCNc1ccc(C2(O)C(=O)c3ccccc3C2=O)cc1	inconclusive: 3.55 µM [activator, partial curve, poor fit]	
COc1ccc(CNc2cc(C)ccn2)c(O)c1		inactive: -0.921% [at 46.1 µM]
COc1ccc(CSc2nnnn2-c2ccccc2)cc1		inactive: -4.99%
Nc1ccccc1SCC(=O)Nc1ccc2c(c1)OCCO2	inconclusive: 35.5 µM [inhibitor, partial curve, poor fit]	
Cc1[nH]c2ccccc2c1C(=O)CN1CC(C)OC(C)C1 (stereo not given)		inactive: 3.33%
Cc1ccc(CCC(=O)Nc2ccc([N+](=O)[O-])cc2Cl)o1	inconclusive: 1.26 µM [inhibitor, single point]	
NNC(=O)c1[nH]c2ccc(Br)cc2c1-c1ccccc1	inconclusive: 35.5 µM [inhibitor, single point]	
COc1ccc(-c2[nH]ncc2/C=C(/C#N)C(=O)NC2CCCCCC2)cc1	active: 10 µM	
CC(C)n1c(N2CCN(C(=O)NCc3ccccc3)CC2)nc2ccccc21	inconclusive: 5.17 µM [inhibitor, partial curve, poor fit]	
COc1ccc2nc(N/C(N)=N/C(=S)Nc3c(C)cccc3C)nc(C)c2c1	inconclusive: 7.3 µM [inhibitor, partial curve]	
O=C(NNC(=O)c1ccc[nH]1)c1cc(Cl)cc(Cl)c1	inconclusive: 6.31 µM [inhibitor, single point]	
O=c1cc(-c2ccccc2)[nH]c2ccccc12	inconclusive: 0.73 µM [inhibitor, full curve]	
Cc1cccc(OCCCCn2c(C3CC(=O)N(c4ccc(C)cc4C)C3)nc3ccccc32)c1 (stereo not given)	inconclusive: 25.1 µM [inhibitor, single point]	
COc1ccc(C)cc1NC(=O)c1ccc(S(=O)(=O)N2CCCCC2)cc1		inactive: -2.57% [at 46.1 µM]
O=C(COc1ccccc1F)Nc1nnc(-c2ccncc2)s1		inactive: -0.0596%
CN(C)CCCN1c2ccccc2Sc2ccc3ccccc3c21	inconclusive: 35.5 µM [inhibitor, single point]	
CO/N=C/c1cc([N+](=O)[O-])ccc1Sc1ccc(C)cc1	inconclusive: 29.1 µM [inhibitor, single point]	
Cc1onc(-c2ccccc2)c1CNC(=O)Nc1ccc(C(F)(F)F)cc1	inconclusive: 35.5 µM [inhibitor, single point]	
Cc1nn(CC(=O)NCc2ccccc2Br)c(=O)c2cc3occc3n12		inactive: 22.6% [at 46.1 µM]
C/C(=N\Nc1ccc(Cl)c(C(=O)O)c1)c1cc2ccccc2o1	inconclusive: 7.08 µM [inhibitor, partial curve, poor fit]	
COc1ccc(Nc2c3c(nc4ccccc24)CCC3)cc1	active: 8.91 µM	
COc1ccc(CN(CCC#N)C(=S)NC(=O)c2ccccc2)cc1	inconclusive: 35.5 µM [inhibitor, single point]	

Random excerpt: 2 records from the list, in no set order.
SMILES	Potency	activity change, negative = inhibition
COc1ccc(CSc2nnnn2-c2ccccc2)cc1		inactive: -4.99%
Cc1cccc(OCCCCn2c(C3CC(=O)N(c4ccc(C)cc4C)C3)nc3ccccc32)c1 (stereo not given)	inconclusive: 25.1 µM [inhibitor, single point]	
